Reference: patent US20070196879A1
These are yes or no findings as the source states them, for the method shown. In cells and extracts the contact can be indirect. Some entries that bind do so weakly or less than the wild type.

Biological target: T1, human paraoxonase (PON1) (human) (UniProt P27169)
T1 sequence (chain, 2 glycosylated chains on the PON1 (positions not given)): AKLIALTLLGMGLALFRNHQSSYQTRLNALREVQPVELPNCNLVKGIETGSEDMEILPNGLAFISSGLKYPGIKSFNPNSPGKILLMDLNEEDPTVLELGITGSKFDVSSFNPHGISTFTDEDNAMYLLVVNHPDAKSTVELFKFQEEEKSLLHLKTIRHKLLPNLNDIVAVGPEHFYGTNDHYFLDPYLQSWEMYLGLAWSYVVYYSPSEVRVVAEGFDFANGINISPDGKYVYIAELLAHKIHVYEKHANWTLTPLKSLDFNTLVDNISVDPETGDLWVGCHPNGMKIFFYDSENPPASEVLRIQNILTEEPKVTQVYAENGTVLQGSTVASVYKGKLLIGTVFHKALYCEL
Assay: co-purification from human plasma through an anion exchange column (DEAE sepharose); separated only on a two-dimensional gel under drastic conditions (9M urea, 4% triton)

- binding: binds
B1: human phosphate binding protein (HPBP), protein of the invention SEQ ID NO: 2 (protein)
chain: DINGGGATLPQKLYLTPDVLTAGFAPYIGVGSGKGKIAFLENKYNQFGTDTTKNVHWAGSDSKLTATELATYAADKEPGWGKLIQVPSVATSVAIPFRKAGANAVDLSVKELCGVFSGRIADWSGITGAGRSGPIQVVYRAESSGTTELFTRFLNAKCTTQPGTFAVTTVFANSYSLGLSPLAGAVAAIGSVGVMAADNDVTTAQGRITYISPDFAAPTLAGLDDATKVARTGKGSSSGGGAEGKSPAAANVSAAISVVPLPAAADRGDPNVWTPVFGAVTGGGVVAYPDSGYPILGFTDLIFSECYANATQTGQVRNFFTKHYGTSANDNAAIQANAFVPLPSNWKAAVRASYLTASNALSIGDSAVCGGKGRPE
